# Assay results taken from PMC8555152.
# Protein sequences, listed by entry. Tags and fused reporters are not part of them.
# UniProt P10415: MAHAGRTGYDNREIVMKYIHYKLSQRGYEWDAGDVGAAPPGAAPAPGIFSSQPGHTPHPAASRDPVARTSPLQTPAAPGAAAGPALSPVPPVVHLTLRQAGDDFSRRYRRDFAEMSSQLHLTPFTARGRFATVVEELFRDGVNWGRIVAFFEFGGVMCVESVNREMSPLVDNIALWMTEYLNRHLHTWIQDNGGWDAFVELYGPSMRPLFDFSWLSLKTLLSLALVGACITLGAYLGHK
# UniProt Q14457: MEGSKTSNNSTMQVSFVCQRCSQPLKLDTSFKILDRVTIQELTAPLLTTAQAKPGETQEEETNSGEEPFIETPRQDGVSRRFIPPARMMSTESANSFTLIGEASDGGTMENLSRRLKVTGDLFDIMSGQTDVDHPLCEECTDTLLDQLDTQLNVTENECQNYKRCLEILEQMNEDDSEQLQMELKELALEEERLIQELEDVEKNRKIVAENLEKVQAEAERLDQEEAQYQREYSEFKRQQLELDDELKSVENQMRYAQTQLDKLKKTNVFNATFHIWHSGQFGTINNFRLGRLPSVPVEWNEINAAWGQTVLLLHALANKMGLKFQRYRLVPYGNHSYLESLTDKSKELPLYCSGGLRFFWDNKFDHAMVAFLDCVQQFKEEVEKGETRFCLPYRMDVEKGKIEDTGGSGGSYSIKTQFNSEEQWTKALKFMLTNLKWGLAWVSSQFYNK
# Results are given in words; binding and its absence hold for the method and conditions named. Binding seen in cells or lysates may run through a third protein. Some entries that bind do so weakly or less than the wild type.
# Target: BCL2, endogenous (human (endogenous in HEK293T)) (UniProt P10415)
# Experiment: co-IP
substance,measurement,value
BECN1-Flag (pcDNA4-BECN1-Flag) (from UniProt Q14457 1-450),binding,binds
